The supplement of paper PMC7024190
Structures can show the parent of a compound that is named as a salt. This is one part of the list. Single values are uncertain here, since repeats match poorly.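 The cells were human embryonic kidney cells carrying a Renilla luciferase gene, driven by the HSV-TK promoter, on a plasmid put in briefly by transfection. This is the first-round screen of about ten thousand compounds, looking for ones that raise reporter output.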

These molecules were tested on HEK 293FT (assay: log relative Renilla luciferase luminescence (reporter expression vs reference, reference not stated) (log (base not stated)); higher = higher recombinant reporter expression). Settings: 10 µM; time after transfection 48 h.

SMILES | log
O=C1CN(/N=C/c2ccc([N+](=O)[O-])o2)C(=O)N1 [Nitrofurantoin] | -0.262
CCOc1ccc2nc3cc(N)ccc3c(N)c2c1 [Ethacridine] | -1.23
Cc1cn([C@H]2C[C@H](N=[N+]=[N-])[C@@H](CO)O2)c(=O)[nH]c1=O [Zidovudine] | 0.00546
CC(C)(S)[C@@H](N)C(=O)O [D-Penicillamine] | 0.025
O=C(CN1CCCCC1)N1CCc2ccccc21 [Indocaine] | -0.034
O=C1CN(CCN2CC(=O)NC(=O)C2)CC(=O)N1 | -0.289
O=c1[nH]c(=O)n(C2CCCO2)cc1F (stereo not given) [Tegafur] | 0.0815
N=C(N)NC(=N)NCCc1ccccc1 [Phenformin Hydrochloride] | -0.0295
Nc1ccn([C@@H]2CS[C@H](CO)O2)c(=O)n1 [Lamivudine] | 0.077
O=C1OC(c2ccc(O)cc2)(c2ccc(O)cc2)c2ccccc21 [Phenolphthalein] | 0.081
O=C1OCCN1/N=C/c1ccc([N+](=O)[O-])o1 [Furazolidone] | 0.00428
COc1ccc(-c2cc(=O)c3c(O)cc(O[C@@H]4O[C@H](CO[C@@H]5O[C@@H](C)[C@H](O)[C@@H](O)[C@H]5O)[C@@H](O)[C@H](O)[C@H]4O)cc3o2)cc1 [Acaciin] | 0.187
COc1cc(Cc2cc(N)nc(N)n2)cc(OC)c1OC [Isotrimethoprim] | 0.129
C=C1C(=O)O[C@@H]2[C@H]3C(C)=CC[C@@]34O[C@@]4(C)CC[C@@H]12 [Arglabin] | -0.13
CCc1c2c(nc3ccc(OC(=O)N4CCC(N5CCCCC5)CC4)cc13)-c1cc3c(c(=O)n1C2)COC(=O)[C@]3(O)CC [Irinotecan] | -0.342
[O-][n+]1c(CO)c(CO)[n+]([O-])c2ccccc21 [Dioxidine] | 0.16
O=C(O)Cn1cc(F)c(=O)[nH]c1=O [Fluorouracilacetate] | -0.163
CC(=O)OCC1=C(C(=O)O)N2C(=O)[C@@H](NC(=O)Cc3cccs3)[C@H]2SC1 [Cefalotin] | -0.00589
CC(C)(C)c1ccc(C(=O)CCCN2CCC(OC(c3ccccc3)c3ccccc3)CC2)cc1 [Ebastine] | -0.473
COc1ccc(CCC(=O)c2c(O)cc(O[C@@H]3O[C@H](CO)[C@@H](O)[C@H](O)[C@H]3O[C@@H]3O[C@@H](C)[C@H](O)[C@@H](O)[C@H]3O)cc2O)cc1O [Neohesperidin dihydrochalcone] | 0.077
Nc1ncnc2c1ncn2CC(O)CO (stereo not given) [9-Dihydroxypropyladenine] | -0.157
CN1C[C@@H]2C[C@H]1CN2c1cc2c(cc1F)c(=O)c(C(=O)O)cn2C1CC1 [Danofloxacin Mesylate] | -0.23
CC1OC1(C)C(=O)OC1c2cc3ccc(=O)oc3cc2OC(C)(C)C1OC(=O)C1(C)OC1C (stereo not given) [Peuarenin] | -0.071
CCC(=O)OCC(=O)[C@@]1(OC(=O)CC)[C@@H](C)C[C@H]2[C@@H]3CCC4=CC(=O)C=C[C@]4(C)[C@@]3(F)[C@@H](O)C[C@@]21C [Betamethasone dipropionate] | -0.0949
COc1cc2nc(N3CCN(C(=O)C4COc5ccccc5O4)CC3)nc(N)c2cc1OC (stereo not given) [Doxazosin Mesylate] | 0.0416

For reference, two of the compounds above:
SMILES | log
C=C1C(=O)O[C@@H]2[C@H]3C(C)=CC[C@@]34O[C@@]4(C)CC[C@@H]12 [Arglabin] | -0.13
CCc1c2c(nc3ccc(OC(=O)N4CCC(N5CCCCC5)CC4)cc13)-c1cc3c(c(=O)n1C2)COC(=O)[C@]3(O)CC [Irinotecan] | -0.342
